Measured values published in PubChem BioAssay AID624405 (Broad Institute, 2012).
Hit rate of the full screen: of about 1,900 compounds, about 250 (13%) were called active. Not shown: some 4% with an inconclusive outcome.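 The calls were made as follows: active = fitted curve reaches 40% rescue activity at or below the top valid dose, in every test run; inconclusive = test runs disagree, some active and some inactive; inactive = every run misses the threshold or moves the wrong way.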 Only a part is listed here, and it is no random draw. Results with a measured potency or affinity are listed apart.

test: suppressors of statin myotoxicity in myotubes, dose response, cell-based, C2C12 myotubes, ATP luminescence, cherry pick (AID 624405); conditions: C2C12 myotubes + simvastatin, 48 h, scaled: DMSO wells 0, geranylgeraniol wells 100; at 19.5 µM (top of the series) unless noted;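 also: myotubes are challenged with simvastatin at 10 µM to lower ATP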

Q: Which rescue activity (ATP increase) does the source give for O=C(COc1ccccc1F)NCCc1ccc2c(c1)OCCO2 here?
A: inactive: 26.7%

Q: For CCCCCn1c(CCC(=O)Oc2ccccc2OC)nc2c1c(=O)[nH]c(=O)n2CCCC, which rescue activity (ATP increase) is on record?
A: inactive: 6.17%

Q: Which rescue activity (ATP increase) does the source give for C[C@H]1CN([C@@H](C)CO)C(=O)c2cccc(NC(=O)Nc3ccc4c(c3)OCO4)c2O[C@@H]1CN(C)CC1CCCCC1 here?
A: inactive: 28.6%

Q: Which rescue activity (ATP increase) does the source give for CC(C)(C)C(=O)COC(=O)CNC(=O)c1ccc(Oc2ccccc2)cc1 here?
A: inactive: 0.797%

Q: For Cc1ccc(S(=O)(=O)Nc2ccc3c(c2)CC(=O)N([C@H](C)CO)C[C@@H](C)[C@@H](CN(C)Cc2ccc(C(F)(F)F)cc2)O3)cc1, which rescue activity (ATP increase) is on record?
A: inactive: 2% [at 21 µM]

Q: For COc1cccc(-n2nnnc2SCC(=O)NCCc2ccccc2)c1, which rescue activity (ATP increase) is on record?
A: inactive: 19.2%

Q: For COc1ccc(S(=O)(=O)Nc2ccc3c(c2)C(=O)N([C@@H](C)CO)C[C@@H](C)[C@@H](CN(C)S(=O)(=O)c2cccs2)OCCCC[C@H](C)O3)cc1, which rescue activity (ATP increase) is on record?
A: inactive: 20.6%

Q: Which rescue activity (ATP increase) does the source give for Cc1cc2c(c(=O)n1Cc1cccnc1)C(c1ccc(F)cc1)C(C#N)=C(N)O2 (stereo not given) here?
A: inactive: -9.08%

Q: For CCn1c(SCC(=O)N2CCCC2)nnc1-c1ccc(N)cc1, which rescue activity (ATP increase) is on record?
A: inactive: -11.8%

Q: Which rescue activity (ATP increase) does the source give for COc1ccc(C(=O)Nc2n[nH]c(-c3ccncc3)n2)cc1 here?
A: inactive: 3.41%

Q: For O=C(Nc1ccccc1Cl)N1C[C@@H]2[C@H](c3ccccc31)[C@H](CO)N2Cc1ccccc1, which rescue activity (ATP increase) is on record?
A: inactive: 0.273%

Q: Which rescue activity (ATP increase) does the source give for COc1ccc(S(=O)(=O)Nc2cccc3c2O[C@H](CN(C)C)[C@@H](C)CN([C@H](C)CO)C3=O)cc1 here?
A: inactive: -3.17%

Q: Which rescue activity (ATP increase) does the source give for C[C@H](CO)N1C[C@H](C)[C@@H](CN(C)Cc2ccc(Oc3ccccc3)cc2)Oc2ccc(NC(=O)Nc3ccccc3)cc2CC1=O here?
A: inactive: 20.1%

Q: With C[C@H]1CCCCO[C@@H](CN(C)S(=O)(=O)c2cccs2)[C@@H](C)CN([C@@H](C)CO)C(=O)c2cc(NC(=O)Nc3ccc(F)cc3)ccc2O1 as the molecule, how does the rescue activity (ATP increase) read?
A: inactive: -14.9%

Q: For C[C@H]1CN([C@@H](C)CO)C(=O)c2cc(NC(=O)Cc3cn(C)c4ccccc34)ccc2O[C@H]1CN(C)S(=O)(=O)c1cccs1, which rescue activity (ATP increase) is on record?
A: inactive: 21.2%

Q: With O=C(Nc1cccc(C(F)(F)F)c1)C1CCN(S(=O)(=O)c2cnc[nH]2)CC1 as the molecule, how does the rescue activity (ATP increase) read?
A: inactive: -67%

Q: Which rescue activity (ATP increase) does the source give for CCc1nc(SCC(=O)Nc2cc(C)on2)c2c(C)c(C)sc2n1 here?
A: inactive: -7.85%

Q: Which rescue activity (ATP increase) does the source give for C[C@H]1CN([C@@H](C)CO)C(=O)c2cccc(NS(=O)(=O)c3cccs3)c2O[C@@H]1CN(C)Cc1ccc(Oc2ccccc2)cc1 here?
A: inactive: 10.6%

Q: With C[C@@H]1CCCCO[C@@H](CN(C)Cc2ccc(C(F)(F)F)cc2)[C@H](C)CN([C@@H](C)CO)C(=O)c2cc(NC(=O)c3ccncc3)ccc2O1 as the molecule, how does the rescue activity (ATP increase) read?
A: inactive: 24.7%

Q: With COC(=O)c1cn(Cc2ccc(C(F)(F)F)cc2)cc(F)c1=O as the molecule, how does the rescue activity (ATP increase) read?
A: inactive: -11.3%

Q: With C[C@H]1CN([C@@H](C)CO)C(=O)c2cc(C#Cc3cccc(F)c3)cnc2O[C@@H]1CN(C)C(=O)C1CCCCC1 as the molecule, how does the rescue activity (ATP increase) read?
A: inactive: 24.4%

Q: With C=C(C)COc1ccc2oc(C)c(C(=O)OCCOC)c2c1 as the molecule, how does the rescue activity (ATP increase) read?
A: inactive: 7.84%

Q: For Cc1noc(C)c1NC(=O)Nc1ccc2c(c1)C(=O)N([C@H](C)CO)C[C@@H](C)[C@H](CN(C)C(=O)Nc1ccccc1)OCCCC[C@@H](C)O2, which rescue activity (ATP increase) is on record?
A: inactive: 2.09%

Q: With CN1C[C@@H]2[C@H](c3ccccc31)[C@H](CO)N2Cc1ccccc1Cl as the molecule, how does the rescue activity (ATP increase) read?
A: inactive: -6.34%

Q: Which rescue activity (ATP increase) does the source give for Cc1csc2ncc(C(=O)Nc3cccc(C(F)(F)F)c3)c(=O)n12 here?
A: inactive: -19.3%

Q: Which rescue activity (ATP increase) does the source give for OC[C@H]1[C@H]2c3ccccc3NC[C@H]2N1Cc1ccccc1Cl here?
A: inactive: -8.25%

Q: For Cc1noc(C)c1NC(=O)Nc1cccc2c1O[C@@H](CN(C)Cc1ccc(-c3ccccc3)cc1)[C@H](C)CN([C@@H](C)CO)C2=O, which rescue activity (ATP increase) is on record?
A: inactive: 8.68%

Q: Which rescue activity (ATP increase) does the source give for O=C(O)C1CC=CCC1C(=O)NCCc1ccccc1 (stereo not given) here?
A: inactive: 12%

Q: With COc1ccc(S(=O)(=O)Nc2ccc3c(c2)C(=O)N([C@@H](C)CO)C[C@@H](C)[C@@H](CN(C)S(=O)(=O)c2ccc(F)cc2)OCCCC[C@@H](C)O3)cc1 as the molecule, how does the rescue activity (ATP increase) read?
A: inactive: 33.6%

Q: With C=CCSc1nnc(-c2cc3c(s2)-c2ccccc2CC3)o1 as the molecule, how does the rescue activity (ATP increase) read?
A: inactive: 6.74%

Q: Which rescue activity (ATP increase) does the source give for CCOC(=O)C(=CNCC(=O)OC)C(=O)OCC here?
A: inactive: 22.5%

Q: For Clc1ccc(Sc2oc(/C=N/n3cnnc3)cc2Br)cc1, which rescue activity (ATP increase) is on record?
A: inactive: 56%

Q: For Cc1noc(C)c1S(=O)(=O)Nc1ccc2c(c1)C(=O)N([C@@H](C)CO)C[C@H](C)[C@H](CN(C)S(=O)(=O)c1ccc(Cl)cc1)OCCCC[C@@H](C)O2, which rescue activity (ATP increase) is on record?
A: inactive: 17%

Q: For Fc1ccc(CSc2ncnc3nc[nH]c23)cc1, which rescue activity (ATP increase) is on record?
A: inactive: -44.9% [at 10 µM]

Q: Which rescue activity (ATP increase) does the source give for COc1ccc2c(c1)N(C)C(=O)CC(c1ccccc1)=N2 here?
A: inactive: -4.84%

Q: With O=C(CN1CCN(c2ccccn2)CC1)Nc1ccc(F)cc1 as the molecule, how does the rescue activity (ATP increase) read?
A: inactive: -68.8% [at 10 µM]

Q: With COc1ccc(S(=O)(=O)Nc2ccc3c(c2)C(=O)N([C@@H](C)CO)C[C@H](C)[C@@H](CN(C)S(=O)(=O)c2ccc(F)cc2)OCCCC[C@@H](C)O3)cc1 as the molecule, how does the rescue activity (ATP increase) read?
A: inactive: 17.1%

Q: With Cc1cc(NC(=O)COC(=O)C2CCN(S(=O)(=O)c3c(Cl)cccc3Cl)CC2)no1 as the molecule, how does the rescue activity (ATP increase) read?
A: inactive: 26.2%

Q: With C[C@H]1CN([C@@H](C)CO)C(=O)c2cc(C3=CCCCC3)cnc2O[C@@H]1CN(C)Cc1ccccc1F as the molecule, how does the rescue activity (ATP increase) read?
A: inactive: 14.8%

Q: With Cc1cc(Oc2ccccc2)nc(-c2ccccc2O)n1 as the molecule, how does the rescue activity (ATP increase) read?
A: inactive: -24.2%
